Article PMC7862700
The list shows a part of the results. The source does not settle which construct or isoform was used.

Target: T1, ELF2 (UniProt Q15723)
T1 sequence: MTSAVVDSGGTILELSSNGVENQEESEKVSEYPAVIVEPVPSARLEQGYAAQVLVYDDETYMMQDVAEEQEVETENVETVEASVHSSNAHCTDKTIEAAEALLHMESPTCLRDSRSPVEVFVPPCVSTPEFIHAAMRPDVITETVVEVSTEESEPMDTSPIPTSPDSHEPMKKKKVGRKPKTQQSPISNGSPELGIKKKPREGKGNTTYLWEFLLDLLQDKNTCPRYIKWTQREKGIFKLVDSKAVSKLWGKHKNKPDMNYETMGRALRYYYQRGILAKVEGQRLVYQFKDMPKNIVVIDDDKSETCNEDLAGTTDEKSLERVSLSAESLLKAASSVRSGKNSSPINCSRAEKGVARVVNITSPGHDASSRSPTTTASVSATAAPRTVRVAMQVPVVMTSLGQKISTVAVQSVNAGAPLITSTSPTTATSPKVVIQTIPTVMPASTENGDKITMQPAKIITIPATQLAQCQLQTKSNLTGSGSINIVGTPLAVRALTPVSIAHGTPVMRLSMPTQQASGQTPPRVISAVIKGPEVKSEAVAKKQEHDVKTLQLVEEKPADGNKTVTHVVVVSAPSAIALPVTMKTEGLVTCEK
Test: DAPPL (digital affinity profiling via proximity ligation, sequencing)
Conditions: 10 mM Tris-HCl pH 7.5, 50 mM NaCl, 1 mM DTT, 4% glycerol, room temperature, 30 min; GST-TFs on glutathione beads, 16-mer random dsDNA library, 0.1% …; high values mean tight binding; double strand, one strand shown; scale: fold enrichment (6-mer frequency, TF over GST control)

Q: How did the binding signal turn out when CCCGCA was run?
A: Its binding signal is 1.2.

Q: How did the binding signal turn out when CCTCCC was run?
A: Its binding signal is 1.46.

Q: For CAAATT, which binding signal is on record?
A: The binding signal was 1.16.

Q: Which binding signal does the source give for AAATGT here?
A: The binding signal was 1.33.

Q: With CCTGCA as the sequence, how does the binding signal read?
A: Its binding signal is 1.21.

Q: Which binding signal does the source give for TCTTAA here?
A: Its binding signal is 1.19.

Q: ATCATC was tested. Which binding signal did it give?
A: The binding signal was 1.08.

Q: ACGTTC was tested. Which binding signal did it give?
A: The binding signal was 1.24.

Q: With CATCGA as the sequence, how does the binding signal read?
A: The binding signal was 1.05.

Q: With CGACGA as the sequence, how does the binding signal read?
A: Its binding signal is 1.1.

Q: Which binding signal does the source give for CGGCTC here?
A: Its binding signal is 1.24.

Q: With TTAGCG as the sequence, how does the binding signal read?
A: The binding signal was 1.

Q: Which binding signal does the source give for TGGTTT here?
A: Its binding signal is 1.61.

Q: For TATTCT, which binding signal is on record?
A: Its binding signal is 1.37.

Q: Which binding signal does the source give for AAGTCC here?
A: Its binding signal is 1.41.

Q: For AAACCA, which binding signal is on record?
A: The binding signal was 1.19.

Q: AGCTTT was tested. Which binding signal did it give?
A: The binding signal was 1.17.

Q: AATTCC was tested. Which binding signal did it give?
A: The binding signal was 2.36.

Q: For CTCCCG, which binding signal is on record?
A: The binding signal was 1.6.

Q: GAAATA was tested. Which binding signal did it give?
A: The binding signal was 1.79.

Q: TATCCG was tested. Which binding signal did it give?
A: The binding signal was 3.28.

Q: How did the binding signal turn out when TTGTCC was run?
A: The binding signal was 1.39.

Q: CACTCG was tested. Which binding signal did it give?
A: The binding signal was 1.05.

Q: How did the binding signal turn out when AGCCCC was run?
A: The binding signal was 1.1.

Q: How did the binding signal turn out when CTTTCA was run?
A: Its binding signal is 1.29.

Q: With TTAATT as the sequence, how does the binding signal read?
A: Its binding signal is 1.48.

Q: For GCTTGC, which binding signal is on record?
A: The binding signal was 1.19.

Q: For CTACTC, which binding signal is on record?
A: The binding signal was 1.29.

Q: How did the binding signal turn out when CTAAAG was run?
A: The binding signal was 1.31.

Q: Which binding signal does the source give for TAGCTA here?
A: Its binding signal is 1.2.

Q: Which binding signal does the source give for CTTATG here?
A: The binding signal was 1.37.

Q: With TTACCC as the sequence, how does the binding signal read?
A: Its binding signal is 1.39.

Q: Which binding signal does the source give for TCTGCC here?
A: Its binding signal is 1.28.

Q: ATCTCT was tested. Which binding signal did it give?
A: Its binding signal is 1.23.

Q: With TCTTGA as the sequence, how does the binding signal read?
A: The binding signal was 1.14.

Q: Which binding signal does the source give for TAAACG here?
A: The binding signal was 1.12.

Q: With CTCCTC as the sequence, how does the binding signal read?
A: The binding signal was 1.31.

Q: With GTAAAA as the sequence, how does the binding signal read?
A: The binding signal was 1.18.

Q: TCCGGC was tested. Which binding signal did it give?
A: Its binding signal is 2.52.
